## Library screen at single concentrations

Protein sequences, listed by entry. Tags and fused reporters are not part of them. Residues count along the entry.
UniProt I6X8D2, whole entry: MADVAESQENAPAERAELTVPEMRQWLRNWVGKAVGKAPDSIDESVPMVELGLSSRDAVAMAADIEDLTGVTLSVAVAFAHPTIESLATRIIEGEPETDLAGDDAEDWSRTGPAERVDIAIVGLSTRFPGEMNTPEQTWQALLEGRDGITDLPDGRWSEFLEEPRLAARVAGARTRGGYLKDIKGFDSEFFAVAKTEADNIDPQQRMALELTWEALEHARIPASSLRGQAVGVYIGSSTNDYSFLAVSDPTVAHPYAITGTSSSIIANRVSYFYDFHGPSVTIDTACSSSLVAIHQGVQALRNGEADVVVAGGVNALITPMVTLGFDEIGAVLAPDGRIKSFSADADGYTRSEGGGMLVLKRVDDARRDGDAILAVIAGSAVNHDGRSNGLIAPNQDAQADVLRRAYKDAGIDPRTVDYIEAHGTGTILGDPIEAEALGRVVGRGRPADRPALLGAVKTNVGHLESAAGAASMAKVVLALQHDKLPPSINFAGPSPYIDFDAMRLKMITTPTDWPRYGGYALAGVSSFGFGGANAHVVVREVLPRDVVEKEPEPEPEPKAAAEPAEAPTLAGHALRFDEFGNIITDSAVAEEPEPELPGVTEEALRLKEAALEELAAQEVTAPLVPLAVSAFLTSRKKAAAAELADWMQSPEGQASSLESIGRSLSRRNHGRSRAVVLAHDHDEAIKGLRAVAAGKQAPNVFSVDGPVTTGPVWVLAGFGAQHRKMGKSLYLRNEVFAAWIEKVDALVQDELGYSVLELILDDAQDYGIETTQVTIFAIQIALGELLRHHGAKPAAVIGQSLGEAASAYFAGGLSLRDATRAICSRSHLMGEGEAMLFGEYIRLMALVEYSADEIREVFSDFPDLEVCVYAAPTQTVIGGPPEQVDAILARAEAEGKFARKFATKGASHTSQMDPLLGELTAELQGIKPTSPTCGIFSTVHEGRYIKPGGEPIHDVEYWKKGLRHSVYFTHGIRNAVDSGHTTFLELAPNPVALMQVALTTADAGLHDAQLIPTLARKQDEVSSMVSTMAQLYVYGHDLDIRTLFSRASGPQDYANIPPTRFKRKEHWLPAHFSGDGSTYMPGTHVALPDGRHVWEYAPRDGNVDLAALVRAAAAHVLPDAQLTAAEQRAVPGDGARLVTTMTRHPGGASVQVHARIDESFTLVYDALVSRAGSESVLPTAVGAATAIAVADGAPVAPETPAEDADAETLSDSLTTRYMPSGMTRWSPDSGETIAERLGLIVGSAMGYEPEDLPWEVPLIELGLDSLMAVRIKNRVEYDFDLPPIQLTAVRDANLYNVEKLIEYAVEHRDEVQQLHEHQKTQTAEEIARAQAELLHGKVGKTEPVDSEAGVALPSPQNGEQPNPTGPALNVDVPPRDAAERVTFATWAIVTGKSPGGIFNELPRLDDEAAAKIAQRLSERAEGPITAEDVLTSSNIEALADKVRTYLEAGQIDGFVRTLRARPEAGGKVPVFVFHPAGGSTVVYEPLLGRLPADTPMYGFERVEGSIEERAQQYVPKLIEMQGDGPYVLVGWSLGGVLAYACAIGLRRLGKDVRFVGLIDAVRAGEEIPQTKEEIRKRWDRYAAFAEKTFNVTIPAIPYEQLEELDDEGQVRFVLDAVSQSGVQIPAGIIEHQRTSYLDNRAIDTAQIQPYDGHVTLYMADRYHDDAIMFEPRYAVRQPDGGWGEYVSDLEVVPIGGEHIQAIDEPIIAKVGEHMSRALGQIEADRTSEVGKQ
UniProt Q8IDJ8, 1-583: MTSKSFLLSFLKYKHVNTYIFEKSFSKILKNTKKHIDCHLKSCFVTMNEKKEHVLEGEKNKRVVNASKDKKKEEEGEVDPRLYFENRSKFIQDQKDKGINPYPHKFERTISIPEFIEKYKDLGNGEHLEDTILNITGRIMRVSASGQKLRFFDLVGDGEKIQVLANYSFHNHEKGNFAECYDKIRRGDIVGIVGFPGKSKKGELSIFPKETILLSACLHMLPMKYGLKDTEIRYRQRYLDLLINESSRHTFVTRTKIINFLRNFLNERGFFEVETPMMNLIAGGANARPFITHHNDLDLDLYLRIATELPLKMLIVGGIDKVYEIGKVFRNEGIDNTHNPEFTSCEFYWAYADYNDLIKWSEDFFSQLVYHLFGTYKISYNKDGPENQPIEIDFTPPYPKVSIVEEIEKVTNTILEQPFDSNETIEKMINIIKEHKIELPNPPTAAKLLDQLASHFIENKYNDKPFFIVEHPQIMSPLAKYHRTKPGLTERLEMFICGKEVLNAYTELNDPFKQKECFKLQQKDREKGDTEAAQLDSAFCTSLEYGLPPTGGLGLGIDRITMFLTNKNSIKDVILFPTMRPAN
UniProt P9WNZ1, whole entry: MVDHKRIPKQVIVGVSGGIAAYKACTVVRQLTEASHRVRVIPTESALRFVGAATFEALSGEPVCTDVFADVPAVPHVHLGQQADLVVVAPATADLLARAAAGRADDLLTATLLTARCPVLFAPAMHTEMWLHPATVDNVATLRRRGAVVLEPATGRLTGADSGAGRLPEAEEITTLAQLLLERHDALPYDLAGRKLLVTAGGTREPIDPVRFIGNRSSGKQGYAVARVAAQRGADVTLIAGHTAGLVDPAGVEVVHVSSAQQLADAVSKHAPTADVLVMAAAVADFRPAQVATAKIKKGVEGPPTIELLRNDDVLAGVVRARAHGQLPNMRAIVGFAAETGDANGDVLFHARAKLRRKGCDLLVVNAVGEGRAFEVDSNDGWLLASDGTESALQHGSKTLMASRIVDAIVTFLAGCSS

Toxoplasma: 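Assay of Toxoplasma gondii numbers, read through their beta-galactosidase reporter with a colour substrate. Concentration: 10 µM. The record gives no direction; the compounds picked for IC50 retests had high values, so higher reads as fewer parasites. Of about 67,000 compounds tested this way, about 260 (0.38%) reached 50% or more in at least one test.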
Pks13 thioesterase: 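Polyketide synthase Pks13, Mycobacterium tuberculosis (UniProt I6X8D2). Enzyme assay of the thioesterase domain of polyketide synthase 13; the read-out is not stated. Compounds at 30 µM. The record gives no direction; the compounds picked for IC50 retests had high values, so higher reads as stronger inhibition. Size under these conditions: about 67,000 compounds, about 300 of them at 50% or above in at least one test.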
PfKRS1: 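Lysine-tRNA ligase, Plasmodium falciparum 3D7 (UniProt Q8IDJ8). Enzyme assay of the cytosolic lysyl-tRNA synthetase in 384-well plates, read by luminescence. Compounds at 30 µM. Direction is inferred from only a few compounds that gave an IC50; most scored high, so higher reads as stronger inhibition. About 69,000 compounds were tested under these conditions; 0.071% (about 49) showed 50% or more at least once.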
CoaBC: 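Enzyme assay of CoaBC with a phosphate dye (Biomol Green) read at 650 nm. Target: Coenzyme A biosynthesis protein CoaBC, Mycobacterium tuberculosis (UniProt P9WNZ1). Concentration: 30 µM. Direction is inferred from only a few compounds that gave an IC50; most scored high, so higher reads as stronger inhibition. Most strong results did not repeat in a second test. Of about 67,000 compounds tested this way, about 40 (0.06%) reached 50% or more in at least one test.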

Each number is a percent effect as filed.
How 0% and 100% were set is not recorded. Most values in the screen are low, and negative values occur.
This is an unselected part of the compounds tested.
Two or more numbers in one place are separate tests of the same structure; such repeats can differ widely.
A dash means the value is not listed here; it may have been measured.

| # | structure | Toxoplasma | Pks13 thioesterase | PfKRS1 | CoaBC |
|---|---|---|---|---|---|
| 1 | `Cc1n[nH]c2nc(-c3ccccc3O)cc(C(=O)O)c12` | -22.06% | 15.73% | 1.959% | -4.177% |
| 2 | `CC(C)N1CCC2(C=C(C(=O)NC3CC3)c3ccccc32)CC1` | - | -8.436% | -0.8278% | 0.9009% |
| 3 | `COc1c(C2CCCN2C(=O)c2ccoc2C)c(C)nn1C` (centres undefined) | -33.21% | -0.838% | 2.797% | -0.7335% |
| 4 | `Cc1cc(C(=O)N(C)Cc2cccs2)nc(N2CCCCC2)n1` | 73.87% | -14.86% | 5.694% | -6.236% |
| 5 | `CCn1nc(C)c(NC(=O)CCn2ncc3cc(C)ccc32)c1C` | 7.879% | -20.95% | -5.115% | 3.464% |
| 6 | `Cc1ccccc1C(C)NC(=O)CSCC#N` (centres undefined) | -2.782% | -87.97% | -1.204% | 0.3911% |
| 7 | `O=C([C@@H]1CC[C@@H]2[C@@H](CCN2c2ncccn2)O1)N1CCCO1` | - | 13.46% | 0.1714% | 14.14% |
| 8 | `O=C1NCCN1CCNCC1(O)CCCN(CCC2CCCCC2)C1=O` (centres undefined) | -1.541% | -3.438% | -1.875% | 0.6031% |
| 9 | `CN(C)CCN1CCOCC2(CCCN(C(=O)c3cccn3C)C2)C1.O=C(O)C(F)(F)F.O=C(O)C(F)(F)F` (centres undefined) | 8.845% | - | - | - |
| 10 | `O=C(Cc1ccccc1)N1CCN(Cc2noc(C3CC3)n2)CC1` | 3.768% | -8.865% | 7.718% | 2.872% |
| 11 | `COC(=O)C1CCCCN1C(=O)c1ccc(N(C)C)cc1F` (centres undefined) | -2.185% | -39.55% | 0.7348% | 8.696% |
| 12 | `Cc1cc(C(F)(F)F)nc(CNc2cc(C)nc3cc(C)nn23)n1` | 21.31% | -8.304% | 3.051% | -6.277% |
| 13 | `Cc1nn(C)c(Cl)c1C1CCCN1CC(=O)Nc1cccnc1` (centres undefined) | 6.517% | -5.605% | -0.5999% | 4.639% & 25.26% |
| 14 | `COCc1cc(NCCc2ccccn2)n2nccc2n1` | -6.138% | 11.08% | 1.071% | -0.1266% |
| 15 | `[H][C@]12CCN(C(=O)c3ccc4c(c3)CCCC4)CC[C@]1([H])OCC(=O)N2` | -8.115% | - | - | - |
| 16 | `CC(C)[C@@H]1CN(Cc2ccccc2C#N)C[C@H]1NC(=O)N(C)C` | -0.194% | -4.625% | 4.822% | 0.2404% |
| 17 | `O=C1C[C@H]2[C@H](CCN2C(=O)c2ccno2)N1CC1CC1` | - | 7.835% | 1.105% | 2.683% |
| 18 | `COc1ccc(C(C)NC(=O)Nc2nnc(C)s2)c(OC)c1` (centres undefined) | 5.275% | -15.84% | 3.393% | 5.15% |
| 19 | `Cc1ccc(NC(=O)C2CSCN2C(=O)c2cnsn2)c(C)c1` (centres undefined) | -14.24% | -9.598% | 2.269% | 1.842% |
| 20 | `Cc1cc(C(=O)N2CCn3nc(C(=O)NC4CC4)cc3C2)nc(C)n1` | 17.31% | 2.966% | 1.871% | 1.988% |
| 21 | `COCc1nc(CNc2cccc(-c3nc(C)c(C)o3)c2)cs1` | -2.488% | -11.24% | -0.9926% | -0.2451% |
| 22 | `Cc1ccc(S(=O)(=O)NC2CNC(=O)C2)cc1C` (centres undefined) | -2.408% | -8.184% | 0.1971% | -2.772% |
| 23 | `Cc1[nH]ncc1C(=O)N1CCCC(n2cncn2)C1` (centres undefined) | -0.6187% | -4.508% | -3.823% | 0.7833% |
| 24 | `CC(Cc1ccco1)NC(=O)Nc1ccc(N2CCCC2)nc1` (centres undefined) | -9.886% | 14.03% | -0.4937% | 5.371% |
| 25 | `CN1CCCC(Cc2ccnc3ccncc23)CC1` (centres undefined) | 19.54% | -41.78% | -7.509% | -5.556% |
| 26 | `Cn1ncc2c(=O)[nH]c(CN(Cc3ccco3)C3CCCC3)nc21` | 3.388% | -16.37% | 1.287% | 1.687% |
| 27 | `CC(C(=O)NC1CC1)S(=O)(=O)Cc1noc(C(C)(C)C)n1` (centres undefined) | -3.004% | -24.44% | 12.85% | 4.176% |
| 28 | `O=C(O)c1cn(-c2ccccn2)c(=O)c2ccccc12` | -5.466% | 57.01% | 2.558% | 3.452% |
| 29 | `CC1(C)CN=C(N2CCN(CC3CCCCO3)CC2)S1` (centres undefined) | -2.999% | 1.087% | 0.04322% | -1.488% |
| 30 | `CCc1nc(CCNC(=O)Nc2cccc(C(=O)NC)c2C)cs1` | 3.837% | -5.927% | 0.5489% | 0.8264% |
| 31 | `CSc1sc(NC(=O)Cc2c(C)nc(C)[nH]c2=O)nc1C` | -18.21% | -9.464% | 6.245% | -0.5319% |
| 32 | `COc1ccc(CN2CCn3c(CO)nnc3C2)cc1CN1CCCC1` | - | 9.313% | 2.942% | 2.676% |
| 33 | `C=C(C)COc1ccccc1C(=O)NCCc1nncn1C` | -4.39% | -11.59% | -1.816% | 0% |
| 34 | `O=C(NC[C@H]1OC[C@@H](NC2CCCCC2)[C@@H]1O)c1cccs1` | -10.89% | 1.397% | 9.088% | 1.58% |
| 35 | `[H][C@@]12CS(=O)(=O)C[C@]1([H])N(C(=O)c1ccnn1C)CCN2C(=O)C1CC1` | 5.571% | - | - | - |
| 36 | `O=C(O)C(F)(F)F.O=C(O)C(F)(F)F.OCCN1CC2(CCN(CC3CC3)CC2)c2ccccc21` | 0.3776% | - | - | - |
| 37 | `CC(C)Nc1ncnc2c1CCN(C(=O)Cc1cccs1)CC2` | 4.412% | -10.04% | -0.1055% | 6.694% |
| 38 | `CCNC(=O)[C@@H]1C[C@H](N)CN1c1cc(C(F)(F)F)nc(N2CCCC2)n1` | 3.581% | -6.065% | 2.217% | -0.6135% |
| 39 | `CC(C)CN(CC(=O)O)C(=O)c1ccc(F)cc1` | - | -3.125% | 3.917% | -4.739% |
| 40 | `O=c1[nH]ncc(NCCOc2cccc(Br)c2)c1Cl` | 6.671% | -34.77% | 6.12% | 7.589% |
| 41 | `COC1CCN(CCNC(=O)NC(C)c2cccc(Cl)c2)CC1` (centres undefined) | 14.78% | -21.49% | -0.5348% | -0.4545% |
| 42 | `[H][C@]12CCNC[C@@]1([H])OCCN(C(=O)c1ccco1)C2` | -2.998% | - | - | - |
| 43 | `Cc1cc(NC(=O)NCC(C(C)C)N2CCOCC2)n(C)n1` (centres undefined) | -8.337% | -11.27% | -1.083% | -14.91% |
| 44 | `[H][C@]12CN(C(=O)C3CC3)CCN1C(=O)N(CCOC)C2` | -8.005% | - | - | - |
| 45 | `CN1CCCCC[C@@H]2[C@@H]1[C@H](c1ccccc1)CN2C(=O)c1cccnc1` | - | 16.12% | 0.5584% | -2.451% |
| 46 | `[H][C@]12CCCC(OCc3cccnc3)[C@@]1([H])CN(C(=O)c1cnc(C)cn1)C2` (some centres undefined) | 3.099% | - | - | - |
| 47 | `O=C(O)C(F)(F)F.[H][C@]12CN(c3nncs3)C[C@@]1(C(=O)O)CCCN(C1CCOC1)C2` (some centres undefined) | -19.03% | - | - | - |
| 48 | `O=C(O)C(F)(F)F.O=C(O)C(F)(F)F.[H][C@@]12COC[C@]1(COc1ccccn1)CN(C1CCOCC1)C2` | 16.63% | - | - | - |
| 49 | `CCCNC(=O)CSc1nnc2[nH]c(=O)cc(CC)n12` | -0.5473% | -13.36% | 0.6839% | 11.3% |
| 50 | `O=C(O)C(F)(F)F.O=C(O)C(F)(F)F.[H][C@]12CCN(Cc3cccnc3)CC[C@@]1([H])S(=O)(=O)N(CC(C)C)C2` | 1.345% | - | - | - |
| 51 | `C[C@@H](O)CNc1c(NCc2ccco2)c(=O)c1=O` | -5.487% | -5.395% | 1.343% | 2.179% |
| 52 | `COCCN(C)C[C@@H]1CN(C(=O)c2ccc(C)cc2)C[C@@H]1CO` | 9.049% | -9.169% | 5.105% | -0.361% |
| 53 | `CN(Cc1nc(N)c2ccccc2n1)C1CCCN(c2cccnn2)C1` (centres undefined) | 2.859% | -9.648% | -2.748% | 0.7229% |
| 54 | `Cc1nc(-c2ccc(CNS(=O)(=O)N(C)C)cc2)ccc1C(N)=O` | 2.133% | 9.154% | 0.2873% | -3.398% |
| 55 | `CC(Cn1cccn1)NCc1nc(-c2cccc(Cl)c2)no1` (centres undefined) | -4.457% | 1.704% | 0.9336% | -2.838% |
| 56 | `Cn1cc(S(=O)(=O)N(CC(F)(F)F)C2CC2)cc1C(N)=O` | -1.447% | -8.883% | 1.872% | -4.573% |
| 57 | `COCCNC(=O)C1(CCCc2cccnc2)CCCN1C` (centres undefined) | 11.27% | -22.38% | -0.4135% | 4.369% |

Repeated from the top, 5 entries:

For Cc1n[nH]c2nc(-c3ccccc3O)cc(C(=O)O)c12 the result was Toxoplasma: -22.06%; Pks13 thioesterase: 15.73%; PfKRS1: 1.959%; CoaBC: -4.177%.
For CC(C)N1CCC2(C=C(C(=O)NC3CC3)c3ccccc32)CC1 the result was Pks13 thioesterase: -8.436%; PfKRS1: -0.8278%; CoaBC: 0.9009%.
For COc1c(C2CCCN2C(=O)c2ccoc2C)c(C)nn1C (centres undefined) the result was Toxoplasma: -33.21%; Pks13 thioesterase: -0.838%; PfKRS1: 2.797%; CoaBC: -0.7335%.
For Cc1cc(C(=O)N(C)Cc2cccs2)nc(N2CCCCC2)n1 the result was Toxoplasma: 73.87%; Pks13 thioesterase: -14.86%; PfKRS1: 5.694%; CoaBC: -6.236%.
For CCn1nc(C)c(NC(=O)CCn2ncc3cc(C)ccc32)c1C the result was Toxoplasma: 7.879%; Pks13 thioesterase: -20.95%; PfKRS1: -5.115%; CoaBC: 3.464%.

Source: ChEMBL document CHEMBL3988442, “University of Dundee, Small-Polar-MMV Screening Library” (2021).